Data reported in the supplement of paper PMC11732987, “Enantioselective OTUD7B fragment discovery through chemoproteomics screening and high-throughput optimisation” (Communications Chemistry, 2025).
The list shows a part of the results. The data scatter; read single values as rough.

By UniProt entry, the sequences of proteins in these tests, tags left out. Where a name states a change or a piece, a line headed by the entry shows the natural chain unless it says otherwise. Residues count along the entry.
UniProt O00512, 112-132: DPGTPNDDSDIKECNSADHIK
UniProt Q9NT62, whole entry, looked up: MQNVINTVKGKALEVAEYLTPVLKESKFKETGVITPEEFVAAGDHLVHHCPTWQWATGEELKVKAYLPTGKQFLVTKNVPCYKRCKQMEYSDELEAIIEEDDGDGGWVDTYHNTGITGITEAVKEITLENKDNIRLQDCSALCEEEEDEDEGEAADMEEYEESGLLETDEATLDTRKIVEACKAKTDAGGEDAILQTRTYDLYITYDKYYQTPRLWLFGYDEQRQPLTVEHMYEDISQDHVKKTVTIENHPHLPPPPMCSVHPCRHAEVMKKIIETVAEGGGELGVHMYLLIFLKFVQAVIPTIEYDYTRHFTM
UniProt Q9ULI0: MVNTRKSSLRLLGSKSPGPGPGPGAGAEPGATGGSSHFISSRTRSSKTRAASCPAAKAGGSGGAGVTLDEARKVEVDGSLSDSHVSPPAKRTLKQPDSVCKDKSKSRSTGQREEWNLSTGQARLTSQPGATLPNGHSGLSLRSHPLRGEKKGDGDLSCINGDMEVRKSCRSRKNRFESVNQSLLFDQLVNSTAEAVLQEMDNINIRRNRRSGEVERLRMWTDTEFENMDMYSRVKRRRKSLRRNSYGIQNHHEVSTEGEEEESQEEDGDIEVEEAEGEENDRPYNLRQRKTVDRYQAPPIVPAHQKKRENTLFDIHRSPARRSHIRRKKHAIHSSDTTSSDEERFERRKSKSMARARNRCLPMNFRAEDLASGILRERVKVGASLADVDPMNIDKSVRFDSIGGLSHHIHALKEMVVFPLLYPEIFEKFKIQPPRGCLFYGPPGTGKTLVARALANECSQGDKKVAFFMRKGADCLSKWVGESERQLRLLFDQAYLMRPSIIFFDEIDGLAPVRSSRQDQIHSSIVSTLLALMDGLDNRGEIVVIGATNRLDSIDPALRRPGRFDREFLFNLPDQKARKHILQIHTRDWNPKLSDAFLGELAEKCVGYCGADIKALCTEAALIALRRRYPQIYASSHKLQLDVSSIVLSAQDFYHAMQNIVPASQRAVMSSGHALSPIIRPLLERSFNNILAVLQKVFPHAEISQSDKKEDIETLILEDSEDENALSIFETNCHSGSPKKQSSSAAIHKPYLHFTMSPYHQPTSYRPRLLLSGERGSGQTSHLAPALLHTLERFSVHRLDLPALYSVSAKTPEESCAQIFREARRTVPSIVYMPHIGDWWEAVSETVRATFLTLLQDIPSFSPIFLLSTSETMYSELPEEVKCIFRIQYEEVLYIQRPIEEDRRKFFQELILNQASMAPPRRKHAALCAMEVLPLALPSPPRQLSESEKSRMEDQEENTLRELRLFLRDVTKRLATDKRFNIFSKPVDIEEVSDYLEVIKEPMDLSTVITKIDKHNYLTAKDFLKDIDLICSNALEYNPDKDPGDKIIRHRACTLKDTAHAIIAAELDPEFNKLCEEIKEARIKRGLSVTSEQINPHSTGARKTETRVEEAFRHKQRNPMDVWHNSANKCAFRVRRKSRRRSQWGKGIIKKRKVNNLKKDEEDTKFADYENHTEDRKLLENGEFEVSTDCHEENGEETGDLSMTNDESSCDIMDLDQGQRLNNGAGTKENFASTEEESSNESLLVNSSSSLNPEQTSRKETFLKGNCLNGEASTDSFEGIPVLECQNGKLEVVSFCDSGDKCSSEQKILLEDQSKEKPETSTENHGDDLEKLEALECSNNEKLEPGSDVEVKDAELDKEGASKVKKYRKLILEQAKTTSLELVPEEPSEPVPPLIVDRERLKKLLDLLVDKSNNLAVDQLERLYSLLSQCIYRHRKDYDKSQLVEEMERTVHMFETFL
UniProt P31939: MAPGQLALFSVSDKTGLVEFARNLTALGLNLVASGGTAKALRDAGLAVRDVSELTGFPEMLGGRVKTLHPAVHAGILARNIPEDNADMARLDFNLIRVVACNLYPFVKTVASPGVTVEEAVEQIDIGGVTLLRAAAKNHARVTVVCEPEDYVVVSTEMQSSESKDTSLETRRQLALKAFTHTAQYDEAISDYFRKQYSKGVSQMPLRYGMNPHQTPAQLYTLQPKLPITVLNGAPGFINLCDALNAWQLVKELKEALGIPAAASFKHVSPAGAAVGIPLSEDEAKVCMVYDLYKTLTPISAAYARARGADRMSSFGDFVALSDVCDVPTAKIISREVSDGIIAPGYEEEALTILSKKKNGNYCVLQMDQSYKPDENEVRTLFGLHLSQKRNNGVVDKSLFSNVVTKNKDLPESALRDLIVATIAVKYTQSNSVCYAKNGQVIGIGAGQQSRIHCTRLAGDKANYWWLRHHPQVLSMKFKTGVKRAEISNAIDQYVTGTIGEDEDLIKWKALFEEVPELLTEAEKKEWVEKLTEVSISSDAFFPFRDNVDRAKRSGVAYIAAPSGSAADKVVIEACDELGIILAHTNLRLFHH
UniProt Q8NBU5: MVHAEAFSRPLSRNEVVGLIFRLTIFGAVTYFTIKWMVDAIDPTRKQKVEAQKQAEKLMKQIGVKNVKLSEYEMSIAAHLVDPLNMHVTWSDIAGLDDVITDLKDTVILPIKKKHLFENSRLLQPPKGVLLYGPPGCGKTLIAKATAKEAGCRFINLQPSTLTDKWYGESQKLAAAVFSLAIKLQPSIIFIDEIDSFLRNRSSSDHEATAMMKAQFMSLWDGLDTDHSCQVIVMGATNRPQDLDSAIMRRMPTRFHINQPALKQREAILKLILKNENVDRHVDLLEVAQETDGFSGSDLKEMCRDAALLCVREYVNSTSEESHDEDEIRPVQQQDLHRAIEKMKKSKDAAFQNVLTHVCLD
UniProt P98194: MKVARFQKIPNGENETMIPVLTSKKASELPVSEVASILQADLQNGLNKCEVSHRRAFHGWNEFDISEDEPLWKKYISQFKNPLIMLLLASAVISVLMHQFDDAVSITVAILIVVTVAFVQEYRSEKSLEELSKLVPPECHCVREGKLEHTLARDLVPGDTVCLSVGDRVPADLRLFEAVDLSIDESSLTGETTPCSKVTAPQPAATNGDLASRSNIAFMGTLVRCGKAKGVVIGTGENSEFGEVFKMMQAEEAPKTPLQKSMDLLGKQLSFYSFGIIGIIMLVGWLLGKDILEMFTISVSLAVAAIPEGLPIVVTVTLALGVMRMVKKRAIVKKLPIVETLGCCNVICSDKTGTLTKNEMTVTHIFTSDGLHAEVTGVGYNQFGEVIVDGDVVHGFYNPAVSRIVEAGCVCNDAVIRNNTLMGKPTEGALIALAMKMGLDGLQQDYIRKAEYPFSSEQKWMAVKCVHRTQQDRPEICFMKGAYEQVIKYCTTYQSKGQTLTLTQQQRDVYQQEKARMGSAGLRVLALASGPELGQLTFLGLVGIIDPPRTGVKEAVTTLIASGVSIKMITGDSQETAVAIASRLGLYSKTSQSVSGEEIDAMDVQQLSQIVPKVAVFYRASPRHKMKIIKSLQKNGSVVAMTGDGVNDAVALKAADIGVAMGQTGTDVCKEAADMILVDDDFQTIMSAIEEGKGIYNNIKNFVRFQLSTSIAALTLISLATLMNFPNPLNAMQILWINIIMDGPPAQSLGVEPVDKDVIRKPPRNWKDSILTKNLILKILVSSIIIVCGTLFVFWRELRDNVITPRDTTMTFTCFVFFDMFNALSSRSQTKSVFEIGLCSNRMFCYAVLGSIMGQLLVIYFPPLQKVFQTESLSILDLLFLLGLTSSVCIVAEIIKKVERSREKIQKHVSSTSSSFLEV
UniProt Q5H9F3: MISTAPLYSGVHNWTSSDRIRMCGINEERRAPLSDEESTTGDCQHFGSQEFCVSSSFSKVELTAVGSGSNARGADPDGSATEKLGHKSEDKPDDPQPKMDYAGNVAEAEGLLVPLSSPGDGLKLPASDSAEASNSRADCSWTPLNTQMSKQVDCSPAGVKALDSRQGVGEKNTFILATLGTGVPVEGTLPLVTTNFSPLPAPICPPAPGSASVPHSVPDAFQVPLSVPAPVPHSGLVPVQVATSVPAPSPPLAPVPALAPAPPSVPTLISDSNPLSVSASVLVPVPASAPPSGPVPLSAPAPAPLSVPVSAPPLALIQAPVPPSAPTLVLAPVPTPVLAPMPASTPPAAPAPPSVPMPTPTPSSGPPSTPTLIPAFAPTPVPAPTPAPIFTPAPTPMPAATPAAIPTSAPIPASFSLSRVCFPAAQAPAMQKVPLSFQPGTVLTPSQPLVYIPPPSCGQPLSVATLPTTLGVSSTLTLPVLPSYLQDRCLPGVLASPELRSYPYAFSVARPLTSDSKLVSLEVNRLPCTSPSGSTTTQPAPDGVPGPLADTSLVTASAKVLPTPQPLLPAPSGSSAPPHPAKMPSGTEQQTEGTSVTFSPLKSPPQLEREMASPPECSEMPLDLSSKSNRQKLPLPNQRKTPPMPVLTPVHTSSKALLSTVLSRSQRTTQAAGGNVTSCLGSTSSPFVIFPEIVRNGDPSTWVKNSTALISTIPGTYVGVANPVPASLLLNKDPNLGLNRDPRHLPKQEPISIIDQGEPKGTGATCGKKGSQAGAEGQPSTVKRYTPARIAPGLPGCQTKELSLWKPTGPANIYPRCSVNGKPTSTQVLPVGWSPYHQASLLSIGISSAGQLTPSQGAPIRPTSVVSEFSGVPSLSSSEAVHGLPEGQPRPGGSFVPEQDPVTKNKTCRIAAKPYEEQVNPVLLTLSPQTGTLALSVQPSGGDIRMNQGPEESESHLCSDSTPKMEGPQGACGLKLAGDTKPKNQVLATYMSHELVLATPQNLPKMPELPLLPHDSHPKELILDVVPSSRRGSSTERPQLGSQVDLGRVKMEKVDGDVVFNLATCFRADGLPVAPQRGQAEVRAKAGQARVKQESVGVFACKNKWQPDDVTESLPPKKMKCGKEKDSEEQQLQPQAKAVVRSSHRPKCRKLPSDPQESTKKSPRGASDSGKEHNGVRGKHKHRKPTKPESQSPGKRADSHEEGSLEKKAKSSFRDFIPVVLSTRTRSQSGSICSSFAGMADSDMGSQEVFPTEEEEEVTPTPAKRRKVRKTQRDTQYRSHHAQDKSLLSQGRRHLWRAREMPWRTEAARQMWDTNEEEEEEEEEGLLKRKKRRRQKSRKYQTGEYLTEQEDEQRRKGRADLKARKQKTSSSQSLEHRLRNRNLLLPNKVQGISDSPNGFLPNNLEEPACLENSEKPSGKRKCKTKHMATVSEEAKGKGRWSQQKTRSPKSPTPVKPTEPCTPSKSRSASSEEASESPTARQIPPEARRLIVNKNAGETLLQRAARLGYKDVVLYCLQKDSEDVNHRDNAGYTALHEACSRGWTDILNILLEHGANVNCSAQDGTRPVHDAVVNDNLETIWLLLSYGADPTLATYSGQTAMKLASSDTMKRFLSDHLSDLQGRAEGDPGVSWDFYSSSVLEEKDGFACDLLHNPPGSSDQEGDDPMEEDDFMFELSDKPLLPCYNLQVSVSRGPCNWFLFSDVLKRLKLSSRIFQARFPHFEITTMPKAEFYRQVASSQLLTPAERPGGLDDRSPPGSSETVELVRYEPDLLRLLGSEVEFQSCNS
UniProt Q9Y4P1: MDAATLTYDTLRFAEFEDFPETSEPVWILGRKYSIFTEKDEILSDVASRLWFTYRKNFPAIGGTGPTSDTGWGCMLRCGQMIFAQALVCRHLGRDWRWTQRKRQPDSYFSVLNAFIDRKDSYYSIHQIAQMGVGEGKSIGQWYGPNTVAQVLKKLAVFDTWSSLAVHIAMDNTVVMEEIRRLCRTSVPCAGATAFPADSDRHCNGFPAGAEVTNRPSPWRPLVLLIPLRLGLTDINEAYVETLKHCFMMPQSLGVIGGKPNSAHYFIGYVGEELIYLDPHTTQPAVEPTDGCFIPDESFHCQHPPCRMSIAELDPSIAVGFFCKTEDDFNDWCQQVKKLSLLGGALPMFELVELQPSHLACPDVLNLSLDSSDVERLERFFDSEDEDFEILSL

Compound: ClCC(=O)N[C@H]1CCCc2ccccc12
Assay: log2 mean competition ratio of IA-DTB cysteine labelling (DMSO/compound) (log2 ratio); higher = stronger cysteine engagement by compound
Conditions: 200 µM; treatment time: 4 h; cell line lysate: HEK293T
Experimental: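 IA-DTB competitive cysteine chemoproteomics in HEK293T RIPA lysate. Lysates were treated with compound 29 or 30 at 50 or 200 µM for 4 h, then IA-DTB (500 µM, 1 h), trypsin-digested, NeutrAvidin-enriched and analysed by diaPASEF. Competition ratio = intensity DMSO / intensity compound (n=4 treated, n=64 DMSO); binding: mean log2 CR ≥ 1 and p ≤ 0.05 plus QC filters. Target is the cysteine site.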

Row | Target | log2 mean competition ratio
1 | BCL9 C125 (UniProt O00512) | 0.0195
2 | ATG3 C182 (UniProt Q9NT62) | 0.105
3 | ATXN2 C852 | -0.289
4 | ATAD2B C437 (UniProt Q9ULI0) | 0.393
5 | ATIC C101 (UniProt P31939) | 0.0124
6 | ATAD1 C137 (UniProt Q8NBU5) | 0.119
7 | ATP2C1 C477 (UniProt P98194) | 0.227
8 | BCORL1 C797 (UniProt Q5H9F3) | 0.261
9 | ATG4B C333 (UniProt Q9Y4P1) | -0.192
